From PMC5945890
These are yes or no findings as the source states them, for the method shown. Where a sequence is shown, tags or fusion partners need not be part of it.

Biological target: T1, cleavage and polyadenylation specificity factor 30-L (CPSF30-L), BD fusion for yeast two-hybrid (Arabidopsis thaliana) (UniProt A9LNK9)
T1 sequence: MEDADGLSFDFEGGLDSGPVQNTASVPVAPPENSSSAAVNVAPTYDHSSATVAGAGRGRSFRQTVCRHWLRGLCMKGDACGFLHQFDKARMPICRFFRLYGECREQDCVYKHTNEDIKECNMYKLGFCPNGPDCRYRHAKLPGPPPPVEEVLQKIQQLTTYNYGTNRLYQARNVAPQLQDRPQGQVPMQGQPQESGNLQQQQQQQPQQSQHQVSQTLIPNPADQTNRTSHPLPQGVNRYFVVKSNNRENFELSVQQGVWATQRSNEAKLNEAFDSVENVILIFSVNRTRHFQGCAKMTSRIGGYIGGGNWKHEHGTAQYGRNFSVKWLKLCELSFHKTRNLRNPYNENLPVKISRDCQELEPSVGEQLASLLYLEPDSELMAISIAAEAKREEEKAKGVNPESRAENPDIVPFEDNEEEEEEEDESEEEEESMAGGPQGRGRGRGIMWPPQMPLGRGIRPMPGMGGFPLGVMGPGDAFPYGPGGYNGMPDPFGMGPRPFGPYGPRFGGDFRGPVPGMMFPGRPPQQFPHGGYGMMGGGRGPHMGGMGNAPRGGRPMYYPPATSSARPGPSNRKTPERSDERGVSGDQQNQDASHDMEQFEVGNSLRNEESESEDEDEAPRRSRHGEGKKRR
Assay: two-hybrid; yeast two-hybrid (Clontech); CPSF30-L or mCPSF30-L in pGBKT7 (BD) as bait, FIP1, FIP1-S1 or FIP1-S2 in pGADT7 (AD); interaction tested on QDO (SD medium lacking leucine, tryptophan, histidine and adenine)

In the case of “FIP1-S2 (C-terminal 731 amino acid residues of FIP1), AD fusion for yeast two-hybrid (Arabidopsis thaliana) (domain or fragment)”, the binding was “no binding”.
